In the experiment the target is human ROR1 extracellular domain (ECD) protein (human), Q01973. The experiment in a line: ForteBio Octet, Wnt5a binding to ROR1 in the presence of antibody.

This passage reports binding results from patent publication US20180009892A1.

Results are given in words; binding and its absence hold for the method and conditions named. Some binding calls cover weakened binding; strength is not graded here.

B1: Wnt5a, P41221 62-380 (ligand, UniProt P41221 62-380, looked up)
chain: IIGAQPLCSQLAGLSQGQKKLCHLYQDHMQYIGEGAKTGIKECQYQFRHRRWNCSTVDNTSVFGRVMQIGSRETAFTYAVSAAGVVNAMSRACREGELSTCGCSRAARPKDLPRDWLWGGCGDNIDYGYRFAKEFVDARERERIHAKGSYESARILMNLHNNEAGRRTVYNLADVACKCHGVSGSCSLKTCWLQLADFRKVGDALKEKYDSAAAMRLNSRGKLVQVNSRFNSPTTQDLVYIDPSPDYCVRNESTGSLGTQGRLCNKTSEGMDGCELMCCGRGYDQFKTVQTERCHCKFHWCCYVKCKKCTEIVDQFVCK
Turning to B1, the binding result is recorded as “binds”.
